At least one compound was matched to its structure with a doubt left.
Tested on: REDS3 cells
Assay: RFP reporter expression in REDS3 cells (live cell imaging)
Format: cell-based, human
Protocol: Cells were seeded on clear flat bottom 96-well or 384-well plates (Corning) and treated with the indicated compounds for the specified conditions. Live cell imaging pictures were taken with the Operetta High Content Screening System (PerkinElmer), 20× objective and non-confocal mode.
Only RFP-positive nuclei were detected and counted.
The increase of RFP fluorescence, detected with the Operetta High Content Screening System (PerkinElmer), 20× objective and non-confocal mode, was used as read-out.
Briefly, the screening was divided in three parts called respectively 1) primary screening, 2) follow up and 3) validation. During the primary screening REDS3 cells were treated with 10 μM of every compound, and live cell imaging pictures were taken in order to assess their ability to induce RFP expression 24 hours later.

Compound | RFP expression in REDS3 cells (single agent) | confirmed screening hit (RFP induction in REDS3 screen) (library screen of 89,355 small molecules, 24 hours)
Cc1[nH]c2ccccc2c1CCNCc1ccc(/C=C/C(=O)NO)cc1 [Panobinostat] | sole compound inducing RFP expression in REDS3 cells | –
CCOC(=O)Nc1cc(-c2ccc(C)c(NS(C)(=O)=O)c2)nn2c(C)nnc12 [Bromosporine] | – | part of this group

— patent US10702518B2, “TAF1 inhibitors for the therapy of cancer” (CeMM—Forschungszentrum für Molekulare Medizin GmbH, priority 2016, dated 2020)
